Reference: patent US20080299140A1, “Immunogenic Composition and Peptide Sequences for Prevention and Treatment of an Hsv Condition” (priority 2002, published 2008)
Part of at least one peptide drawing is inferred or uncertain, most often the ends. Residues, ends and D or L forms follow the SMILES beside them.

Amino acid sequences for entries named in this document (tags omitted). Residues count along the entry.
UniProt P01911, 30-266 W38E/Q39Y/P40S/K41T/R42S/Y61H/S66N/Q99D/A100E/Q125H/L162R/A169T/M171V/Q178H/T262R: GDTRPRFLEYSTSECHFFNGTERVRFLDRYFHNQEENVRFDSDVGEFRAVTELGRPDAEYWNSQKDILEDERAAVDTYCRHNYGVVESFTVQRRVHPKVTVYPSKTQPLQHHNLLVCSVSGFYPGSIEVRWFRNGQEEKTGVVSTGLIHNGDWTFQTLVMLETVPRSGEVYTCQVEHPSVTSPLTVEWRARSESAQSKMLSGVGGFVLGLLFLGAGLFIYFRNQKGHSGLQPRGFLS

Assays:
[1] = target: T1, DR13=HLA-DR(α1*0101,α1*1301) (Homo sapiens, UniProt P01903+P01911, A100E/A169T/K41T/L162R/M171V/P40S/Q125H/Q178H/Q39Y/Q99D/R42S/S66N/T262R/W38E/Y61H); assay: HLA-DR specific binding assay, DR13; details: reference tracer peptide, preliminary experiments
T1 construct: endogenous in cells; host or cells: 0206AD (EBV homozygous B cell line)

[2] = test system: HLA-DR and HLA-DP molecules; assay: MHC class II binding assays, panel of twelve HLA class II molecules (number of alleles bound); details: number of the twelve class II MHC alleles bound; title: Threshold 600 nM/5 alleles

| Compound | IC50 [1] [nM] | Range [2] |
| --- | --- | --- |
| CC[C@H](C)[C@H](NC(=O)[C@H](Cc1c[nH]cn1)NC(=O)[C@H](CCCNC(=N)N)NC(=O)[C@@H](NC(=O)[C@@H](NC(=O)[C@H](CC(C)C)NC(=O)[C@H](CCCNC(=N)N)NC(=O)[C@@H](NC(=O)[C@H](CCCNC(=N)N)NC(=O)[C@H](CCC(=O)O)NC(=O)[C@@H](N)[C@@H](C)O)C(C)C)C(C)C)[C@@H](C)O)C(=O)N[C@@H](Cc1ccc(O)cc1)C(=O)N[C@@H](CC(N)=O)C(=O)N[C@@H](CCCNC(=N)N)C(=O)N[C@@H](CCC(=O)O)C(=O)N[C@@H](CCC(=O)O)C(=O)O [B1 (21-36), reference compound] (H-TERVRLVTRHIYNREE-OH) | 276 | – |
| CSCC[C@H](NC(=O)[C@H](CC(=O)O)NC(=O)[C@@H](NC(=O)[C@@H](NC(=O)[C@H](CCCCN)NC(=O)[C@H](C)NC(=O)[C@H](CO)NC(=O)[C@H](CC(C)C)NC(=O)[C@H](CC(C)C)NC(=O)[C@H](C)NC(=O)[C@H](CO)NC(=O)[C@@H](NC(=O)CN)[C@@H](C)O)C(C)C)[C@@H](C)O)C(=O)N[C@H](C(=O)N[C@@H](CCSC)C(=O)N[C@@H](CCCNC(=N)N)C(=O)N[C@@H](CCCCN)C(=O)N[C@@H](CCCNC(=N)N)C(=O)N[C@@H](CCCNC(=N)N)C(=O)N[C@@H](CC(N)=O)C(=O)N[C@H](C(=O)N[C@@H](CC(N)=O)C(=O)N[C@@H](Cc1ccc(O)cc1)C(=O)N[C@H](C(=O)N[C@@H](CCC(N)=O)C(=O)N[C@H](C(=O)N1CCC[C@H]1C(=O)N[C@@H](CC(N)=O)C(=O)N[C@@H](CCCCN)C(=O)N[C@@H](CC(=O)O)C(=O)NCC(=O)N[C@@H](CC(=O)O)C(=O)N[C@@H](C)C(=O)N[C@@H](CC(=O)O)C(=O)O)C(C)C)[C@@H](C)O)[C@@H](C)O)C(C)C [HSV 9] | – | 5 |
